{"sequences": {"note": "Protein sequences, listed by entry. Tags and fused reporters are not part of them. Lines headed by an entry give the natural chain unless they say otherwise; changes in a name come on top.", "UniProt Q8TAG9": "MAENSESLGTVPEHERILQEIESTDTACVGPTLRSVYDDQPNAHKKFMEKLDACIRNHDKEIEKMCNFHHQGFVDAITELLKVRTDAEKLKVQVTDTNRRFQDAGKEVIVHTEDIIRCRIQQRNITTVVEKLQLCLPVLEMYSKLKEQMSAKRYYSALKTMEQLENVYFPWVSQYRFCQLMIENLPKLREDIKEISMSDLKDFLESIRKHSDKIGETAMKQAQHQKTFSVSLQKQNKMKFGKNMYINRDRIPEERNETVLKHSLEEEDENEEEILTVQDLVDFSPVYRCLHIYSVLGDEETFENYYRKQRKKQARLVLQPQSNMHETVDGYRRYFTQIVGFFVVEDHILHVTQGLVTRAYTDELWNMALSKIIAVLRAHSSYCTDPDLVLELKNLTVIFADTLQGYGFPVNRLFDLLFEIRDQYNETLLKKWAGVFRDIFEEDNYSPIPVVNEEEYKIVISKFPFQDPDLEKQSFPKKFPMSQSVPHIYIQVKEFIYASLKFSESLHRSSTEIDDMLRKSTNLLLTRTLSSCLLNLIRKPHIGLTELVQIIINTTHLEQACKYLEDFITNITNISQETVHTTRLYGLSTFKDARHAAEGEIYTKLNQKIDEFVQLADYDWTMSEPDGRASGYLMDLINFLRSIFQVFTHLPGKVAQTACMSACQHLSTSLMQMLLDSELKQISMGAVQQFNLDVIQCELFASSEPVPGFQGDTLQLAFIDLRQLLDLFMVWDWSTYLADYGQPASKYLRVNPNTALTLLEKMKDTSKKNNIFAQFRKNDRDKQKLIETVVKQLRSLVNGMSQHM", "UniProt Q13158": "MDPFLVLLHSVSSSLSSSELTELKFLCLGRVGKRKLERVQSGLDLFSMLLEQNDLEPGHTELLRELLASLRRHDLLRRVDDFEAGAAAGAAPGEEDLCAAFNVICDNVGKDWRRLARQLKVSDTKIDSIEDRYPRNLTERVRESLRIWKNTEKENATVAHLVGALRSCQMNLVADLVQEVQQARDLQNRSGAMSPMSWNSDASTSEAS", "UniProt Q5T8I3": "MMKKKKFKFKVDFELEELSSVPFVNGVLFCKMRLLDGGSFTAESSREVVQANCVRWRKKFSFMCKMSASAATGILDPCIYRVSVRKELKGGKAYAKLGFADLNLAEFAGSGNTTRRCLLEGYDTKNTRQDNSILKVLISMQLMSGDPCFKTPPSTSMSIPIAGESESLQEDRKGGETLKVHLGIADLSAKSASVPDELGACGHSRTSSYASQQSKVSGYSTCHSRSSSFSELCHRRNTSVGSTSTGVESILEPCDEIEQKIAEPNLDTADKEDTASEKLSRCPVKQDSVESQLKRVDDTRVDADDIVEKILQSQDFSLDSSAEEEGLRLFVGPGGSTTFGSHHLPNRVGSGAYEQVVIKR", "UniProt O60427": "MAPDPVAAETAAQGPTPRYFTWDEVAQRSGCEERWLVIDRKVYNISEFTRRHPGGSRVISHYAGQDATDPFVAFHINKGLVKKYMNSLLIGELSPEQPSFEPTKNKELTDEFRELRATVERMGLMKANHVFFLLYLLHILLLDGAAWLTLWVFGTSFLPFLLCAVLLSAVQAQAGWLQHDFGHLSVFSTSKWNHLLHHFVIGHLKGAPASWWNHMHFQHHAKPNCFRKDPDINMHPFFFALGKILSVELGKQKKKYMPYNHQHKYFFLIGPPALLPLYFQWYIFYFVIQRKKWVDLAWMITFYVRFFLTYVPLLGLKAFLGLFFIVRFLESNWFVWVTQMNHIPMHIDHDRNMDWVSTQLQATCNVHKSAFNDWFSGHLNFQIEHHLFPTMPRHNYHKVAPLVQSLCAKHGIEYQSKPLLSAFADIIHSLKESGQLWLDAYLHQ", "UniProt Q01780": "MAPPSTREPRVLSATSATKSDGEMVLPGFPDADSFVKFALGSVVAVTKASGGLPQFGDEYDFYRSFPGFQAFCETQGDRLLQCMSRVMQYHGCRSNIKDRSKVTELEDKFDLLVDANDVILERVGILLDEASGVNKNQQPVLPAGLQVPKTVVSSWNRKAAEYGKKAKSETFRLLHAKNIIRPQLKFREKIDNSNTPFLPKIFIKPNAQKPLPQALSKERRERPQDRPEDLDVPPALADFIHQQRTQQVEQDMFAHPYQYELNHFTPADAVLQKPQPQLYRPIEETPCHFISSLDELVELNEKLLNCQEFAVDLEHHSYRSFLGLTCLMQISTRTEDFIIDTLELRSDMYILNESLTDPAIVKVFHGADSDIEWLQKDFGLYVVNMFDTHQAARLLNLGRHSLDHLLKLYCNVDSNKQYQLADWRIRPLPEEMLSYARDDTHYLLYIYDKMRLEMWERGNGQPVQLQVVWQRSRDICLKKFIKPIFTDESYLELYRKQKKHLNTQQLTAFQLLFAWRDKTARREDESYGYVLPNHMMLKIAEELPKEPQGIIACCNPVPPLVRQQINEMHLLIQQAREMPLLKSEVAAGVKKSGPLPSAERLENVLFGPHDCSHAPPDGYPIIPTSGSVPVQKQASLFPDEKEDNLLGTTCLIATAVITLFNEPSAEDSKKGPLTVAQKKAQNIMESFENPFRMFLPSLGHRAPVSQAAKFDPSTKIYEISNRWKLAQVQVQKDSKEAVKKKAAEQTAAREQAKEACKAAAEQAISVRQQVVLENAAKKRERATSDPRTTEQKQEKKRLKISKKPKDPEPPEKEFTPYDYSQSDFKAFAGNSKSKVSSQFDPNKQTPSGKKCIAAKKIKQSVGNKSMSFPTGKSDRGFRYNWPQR", "UniProt Q6P587": "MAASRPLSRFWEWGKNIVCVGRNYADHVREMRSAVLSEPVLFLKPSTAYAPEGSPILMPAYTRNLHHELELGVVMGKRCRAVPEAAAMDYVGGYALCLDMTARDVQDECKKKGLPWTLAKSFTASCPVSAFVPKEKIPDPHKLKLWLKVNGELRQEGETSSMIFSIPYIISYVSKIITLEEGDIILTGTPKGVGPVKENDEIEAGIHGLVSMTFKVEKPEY", "UniProt Q96EK7": "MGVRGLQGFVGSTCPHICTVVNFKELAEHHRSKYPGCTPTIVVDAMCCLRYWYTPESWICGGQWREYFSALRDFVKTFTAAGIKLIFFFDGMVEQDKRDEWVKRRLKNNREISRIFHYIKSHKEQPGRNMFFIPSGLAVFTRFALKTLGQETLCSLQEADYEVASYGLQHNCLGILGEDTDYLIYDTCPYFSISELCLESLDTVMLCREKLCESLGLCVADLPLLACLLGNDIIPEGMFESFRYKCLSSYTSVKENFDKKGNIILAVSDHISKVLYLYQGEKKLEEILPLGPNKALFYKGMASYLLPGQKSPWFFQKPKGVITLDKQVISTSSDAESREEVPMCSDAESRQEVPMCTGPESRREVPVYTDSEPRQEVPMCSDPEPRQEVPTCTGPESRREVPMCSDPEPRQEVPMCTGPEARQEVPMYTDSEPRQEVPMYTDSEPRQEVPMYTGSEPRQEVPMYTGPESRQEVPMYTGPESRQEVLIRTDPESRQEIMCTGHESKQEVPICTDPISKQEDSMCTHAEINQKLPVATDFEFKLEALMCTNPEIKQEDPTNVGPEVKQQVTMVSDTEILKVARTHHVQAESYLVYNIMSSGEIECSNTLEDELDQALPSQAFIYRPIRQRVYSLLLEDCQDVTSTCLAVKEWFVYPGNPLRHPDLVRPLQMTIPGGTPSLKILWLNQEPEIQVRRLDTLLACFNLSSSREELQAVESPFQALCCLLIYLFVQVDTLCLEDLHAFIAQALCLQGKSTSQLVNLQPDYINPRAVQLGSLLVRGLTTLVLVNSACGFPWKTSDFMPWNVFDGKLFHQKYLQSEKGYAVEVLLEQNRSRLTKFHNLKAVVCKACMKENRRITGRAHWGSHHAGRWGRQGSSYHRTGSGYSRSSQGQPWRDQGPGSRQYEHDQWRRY", "UniProt P10768": "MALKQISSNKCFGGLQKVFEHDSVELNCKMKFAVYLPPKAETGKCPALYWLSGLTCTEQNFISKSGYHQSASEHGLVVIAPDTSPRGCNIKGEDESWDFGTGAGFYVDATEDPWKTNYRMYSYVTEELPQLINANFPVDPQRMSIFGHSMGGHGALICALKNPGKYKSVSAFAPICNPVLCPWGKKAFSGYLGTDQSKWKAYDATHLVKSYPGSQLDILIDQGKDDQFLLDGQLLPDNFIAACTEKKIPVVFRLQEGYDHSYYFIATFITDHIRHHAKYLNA", "UniProt Q96KP1": "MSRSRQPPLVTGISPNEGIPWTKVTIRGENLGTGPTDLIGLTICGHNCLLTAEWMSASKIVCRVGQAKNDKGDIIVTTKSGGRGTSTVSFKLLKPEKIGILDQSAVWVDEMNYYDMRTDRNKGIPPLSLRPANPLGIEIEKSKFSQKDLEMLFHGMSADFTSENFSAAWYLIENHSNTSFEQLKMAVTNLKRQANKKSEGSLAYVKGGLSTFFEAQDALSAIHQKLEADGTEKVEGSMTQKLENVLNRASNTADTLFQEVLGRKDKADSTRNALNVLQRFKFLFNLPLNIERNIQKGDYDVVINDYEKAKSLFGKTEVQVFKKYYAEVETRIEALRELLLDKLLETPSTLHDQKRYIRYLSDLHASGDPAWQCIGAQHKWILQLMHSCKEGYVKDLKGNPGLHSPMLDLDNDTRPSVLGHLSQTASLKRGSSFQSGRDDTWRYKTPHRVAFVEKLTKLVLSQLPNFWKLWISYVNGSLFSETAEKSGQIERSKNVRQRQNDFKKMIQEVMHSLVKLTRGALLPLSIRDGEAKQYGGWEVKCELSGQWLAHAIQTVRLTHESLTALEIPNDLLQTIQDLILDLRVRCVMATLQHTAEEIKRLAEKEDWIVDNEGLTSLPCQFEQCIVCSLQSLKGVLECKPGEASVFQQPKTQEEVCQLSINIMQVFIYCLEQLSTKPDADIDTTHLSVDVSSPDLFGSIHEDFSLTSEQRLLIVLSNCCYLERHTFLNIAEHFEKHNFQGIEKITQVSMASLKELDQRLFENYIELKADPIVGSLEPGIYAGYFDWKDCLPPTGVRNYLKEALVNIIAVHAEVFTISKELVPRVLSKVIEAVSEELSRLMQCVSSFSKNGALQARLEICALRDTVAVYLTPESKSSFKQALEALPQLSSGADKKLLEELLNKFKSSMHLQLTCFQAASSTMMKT", "UniProt Q56NI9": "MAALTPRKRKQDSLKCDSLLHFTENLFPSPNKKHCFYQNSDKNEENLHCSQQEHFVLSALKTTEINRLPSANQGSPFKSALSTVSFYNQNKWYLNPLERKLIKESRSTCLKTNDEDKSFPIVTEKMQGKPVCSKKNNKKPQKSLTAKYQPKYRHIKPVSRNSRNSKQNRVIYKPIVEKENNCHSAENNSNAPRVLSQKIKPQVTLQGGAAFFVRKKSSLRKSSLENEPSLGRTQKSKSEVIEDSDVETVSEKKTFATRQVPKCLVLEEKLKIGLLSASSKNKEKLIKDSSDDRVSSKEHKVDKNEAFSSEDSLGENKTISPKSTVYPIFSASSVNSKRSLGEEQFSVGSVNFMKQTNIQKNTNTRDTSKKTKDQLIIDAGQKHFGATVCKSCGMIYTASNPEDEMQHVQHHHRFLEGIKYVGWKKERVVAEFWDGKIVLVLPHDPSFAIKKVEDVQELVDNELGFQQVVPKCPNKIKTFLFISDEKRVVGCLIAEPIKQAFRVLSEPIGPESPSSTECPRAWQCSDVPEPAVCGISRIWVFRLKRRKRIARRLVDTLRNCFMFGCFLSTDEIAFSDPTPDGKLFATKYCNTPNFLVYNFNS", "UniProt P41212": "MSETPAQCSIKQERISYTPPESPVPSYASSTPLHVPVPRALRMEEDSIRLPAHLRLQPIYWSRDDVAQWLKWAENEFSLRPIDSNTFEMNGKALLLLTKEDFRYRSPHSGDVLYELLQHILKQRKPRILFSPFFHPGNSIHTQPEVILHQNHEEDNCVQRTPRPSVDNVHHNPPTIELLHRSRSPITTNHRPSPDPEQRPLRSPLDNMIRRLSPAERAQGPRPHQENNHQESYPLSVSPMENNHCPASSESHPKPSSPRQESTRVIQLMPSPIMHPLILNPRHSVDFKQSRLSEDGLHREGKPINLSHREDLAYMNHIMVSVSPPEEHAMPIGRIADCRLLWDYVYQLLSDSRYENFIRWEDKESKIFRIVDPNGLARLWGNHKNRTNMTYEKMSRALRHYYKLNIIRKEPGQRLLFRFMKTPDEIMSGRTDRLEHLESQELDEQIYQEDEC", "UniProt O75477": "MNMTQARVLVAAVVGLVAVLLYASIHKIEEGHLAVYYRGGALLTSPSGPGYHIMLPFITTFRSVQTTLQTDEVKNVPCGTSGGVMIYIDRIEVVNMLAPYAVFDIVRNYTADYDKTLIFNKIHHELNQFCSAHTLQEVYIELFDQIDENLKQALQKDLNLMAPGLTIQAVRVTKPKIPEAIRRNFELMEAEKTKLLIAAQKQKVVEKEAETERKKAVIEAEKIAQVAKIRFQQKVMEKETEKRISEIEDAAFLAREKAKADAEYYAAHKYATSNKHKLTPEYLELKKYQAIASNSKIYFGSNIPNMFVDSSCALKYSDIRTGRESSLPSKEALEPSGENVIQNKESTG"}, "source": "the supplement of paper PMC12067093", "about": "“Discovery and optimisation of a covalent ligand for TRIM25 and its application to targeted protein ubiquitination” (Chemical Science, 2025)", "note": "The other results are listed elsewhere or left out.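 Note: competitive chemoproteomic profiling in live THP-1 cells with an iodoacetamide desthiobiotin (IA-DTB) probe, comparing probe-labelled peptide intensities in compound-treated cells against DMSO-treated controls.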"}
{"compound": "CC1Cc2ccccc2N1C(=O)C1CCCN(C1)C(=O)CCl (mixture of isomers) [TRIM25 ligand 11 (diastereomer mixture)]", "test": "probe-labelled cysteine peptide fold change vs DMSO (competition) (log2 fold change); higher = less target engagement (more negative = stronger competition)", "settings": "10 µM; THP-1; incubation time: 4 h"}
{"target": "EXOC6_Q8TAG9_66_MCNFHHQGFVDAITELLK (UniProt Q8TAG9)", "probe-labelled cysteine peptide fold change": 0.0763}
{"target": "FADD_Q13158_168_SCQMNLVADLVQEVQQAR (UniProt Q13158)", "probe-labelled cysteine peptide fold change": -0.127}
{"target": "ERCC3_P19447_284_CIHLEYPLLAEYDFR (UniProt P19447)", "probe-labelled cysteine peptide fold change": 0.0981}
{"target": "FAM102B_Q5T8I3_53_EVVQANCVR (UniProt Q5T8I3)", "probe-labelled cysteine peptide fold change": 0.0172}
{"target": "FADS1_O60427_407_VAPLVQSLCAK (UniProt O60427)", "probe-labelled cysteine peptide fold change": -0.135}
{"target": "ERMP1_Q7Z2K6_204+222_DGAQHAVLANCHFDSVANSPGASDDAVSCSVMLEVLR (UniProt Q7Z2K6)", "probe-labelled cysteine peptide fold change": 0.00966}
{"target": "ERCC2_P18074_155_AQYQHDTSLPHCR (UniProt P18074)", "probe-labelled cysteine peptide fold change": 0.132}
{"target": "FAM120C_Q9NX05_745_AFLACMK (UniProt Q9NX05)", "probe-labelled cysteine peptide fold change": -0.126}
{"target": "EXOSC10_Q01780_288_PQPQLYRPIEETPCHFISSLDELVELNEK (UniProt Q01780)", "probe-labelled cysteine peptide fold change": 0.279}
{"target": "FAHD1_Q6P587_112_DVQDECK (UniProt Q6P587)", "probe-labelled cysteine peptide fold change": -0.0953}
{"target": "FAM120B_Q96EK7_356_QEVPMCTGPESR (UniProt Q96EK7)", "probe-labelled cysteine peptide fold change": -0.134}
{"target": "ESD_P10768_11_CFGGLQK (UniProt P10768)", "probe-labelled cysteine peptide fold change": -0.0267}
{"target": "EXOC2_Q96KP1_859_LEICALR (UniProt Q96KP1)", "probe-labelled cysteine peptide fold change": -0.0264}
{"target": "ESCO2_Q56NI9_182_ENNCHSAENNSNAPR (UniProt Q56NI9)", "probe-labelled cysteine peptide fold change": 0.14}
{"target": "ETV6_P41212_8_SETPAQCSIK (UniProt P41212)", "probe-labelled cysteine peptide fold change": 0.0671}
{"target": "ERLIN1_O75477_310_IYFGSNIPNMFVDSSCALK (UniProt O75477)", "probe-labelled cysteine peptide fold change": 0.102}
